These results are taken from PubChem BioAssay AID493014 (National Center for Advancing Translational Sciences (NCATS), 2011).

The other results are listed elsewhere or left out. Further columns of the screen follow, without active or inactive calls. The list favours compounds with an active or inconclusive main result. The note in brackets gives the kind of curve behind each potency; many fits are weak.

This assay can be described thus: qHTS Assay to Find Inhibitors of Chronic Active B-Cell Receptor Signaling. As to conditions: ABC-DLBCL IkBa-CBG/CBR reporter, luminescence ratio (green luciferase fused to IkBa over red control in TMD8 lymphoma cells), 4 h. The method, boiled down:
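TMD8 human ABC-DLBCL cells with doxycycline-inducible IκBα–green luciferase fusion and unfused red luciferase, in 0.5% FBS medium; compounds up to 46 uM, 4 h at 37C. Green/red luminescence ratio, filter-overlap corrected, fitted to concentration-response curves.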
A general note: In qHTS, concentration-response curves come from the screen itself.

[1] abbreviates: measured here: CBR red luminescence, cell number.
Setting [2] is: measured here: IkBa-CBG green luminescence.

The term AC50 denotes the concentration at which the activity in the assay is half-maximal. For `O=C(Cc1coc2ccc3ccccc3c12)Nc1nccs1`, the AC50 under setting [1] is 0.116 µM [falling, full curve, poor fit].

As for `Nc1nc2ccccc2nc1N`, the AC50 under setting [1] was 2.59 µM [falling, partial curve, poor fit].

For `CC(C)CC1NC(=S)N(Cc2ccccc2)C1=O` (stereo not drawn), the AC50 under setting [1] was 25.9 µM [falling, partial curve, poor fit].

On to `O=C(NCCn1cc(SCc2ccccc2)c2ccccc21)c1c(F)cccc1F`, for which the AC50 under setting [1] was 18.4 µM [falling, single point].

Turning to `Nc1nc(Nc2cccc(F)c2)nc2ccccc12`, under setting [1], the AC50 was 0.398 µM [rising, full curve, poor fit].

For the compound `Cc1[nH]c(=O)c(C(=O)/C=C/c2ccccc2F)c2c1CCCC2`, the AC50 under setting [1] was 3.16 µM [falling, full curve, poor fit].

With `CCOC(=O)C1=C(CC)Nc2ccccc2N=C1NC(=O)Nc1ccccc1OC`, the AC50 under setting [1] was 0.082 µM [rising, full curve, poor fit].

As to `CN(C)/C=C/C(=O)c1ccc(Cl)c([N+](=O)[O-])c1`, the AC50 is 7.94 µM [falling, partial curve] under setting [1] and 12.6 µM [rising, partial curve, poor fit] under setting [2].

Turning to `COc1ccc(OC)c(-c2cc(C(=O)NCc3cccs3)no2)c1`, the AC50 by setting is: under setting [1], 8.2 µM [rising, partial curve, poor fit]; under setting [2], 16.4 µM [falling, partial curve, poor fit].

In the case of `Cc1ccc2sc(N(CCN(C)C)C(=O)/C=C/c3cccs3)nc2c1C`, the concentration at half-maximal activity (AC50) under setting [1] was 28.2 µM [falling, single point].

Take `CCOc1cccc2sc(N(CCCN(C)C)C(=O)c3ccc(S(=O)(=O)N(C)Cc4ccccc4)cc3)nc12`: the AC50 under setting [1] is 25.1 µM [falling, single point].

`CCNC(=O)COC(=O)c1cc(S(=O)(=O)N2CCCc3ccccc32)ccc1Cl`: under setting [1], the AC50 was 7.94 µM [falling, single point].

Take `Cn1nc([N+](=O)[O-])nc1Oc1ccc2ccccc2c1`: under setting [1], the AC50 is 13 µM [rising, partial curve, poor fit].

Regarding `COc1cc(CN2CCN(C(c3ccccc3)c3ccccc3)CC2)cc(OC)c1OC`, the AC50 under setting [1] is 7.08 µM [falling, full curve, poor fit].

Regarding `Clc1cccc(C2CCN(Cc3nc(CC4CC4)no3)C2)c1` (stereo not drawn), the AC50 under setting [1] is 35.5 µM [rising, single point].

`COc1ccc(S(=O)(=O)/N=C2\C=C(NS(=O)(=O)c3ccccc3)C(=O)c3ccccc32)cc1`: under setting [1], the concentration at half-maximal activity (AC50) was 35.5 µM [falling, single point].

Turning to `COc1cccc(NC2=C(C#N)C(=O)NC(c3cccc(OC)c3O)S2)c1` (stereo not drawn), the AC50 under setting [1] was 11.2 µM [falling, single point].

As for `CCn1c(SCC(=O)Nc2cccc(O)c2)nc2c1c(=O)n(C)c(=O)n2C`, the AC50 is 22.4 µM [rising, partial curve, poor fit] under setting [1] and 7.08 µM [falling, partial curve, poor fit] under setting [2].

With `CC(=O)Nc1cccc(NC(=S)Nc2ccc(F)c(Cl)c2)c1`, the AC50 under setting [1] is 8.91 µM [rising, partial curve, poor fit].

For the compound `CCN(C)c1ccc(/C=N\n2nnnc2N)cc1`, the AC50 under setting [1] was 1.64 µM [rising, partial curve].

`Cc1c(NC(=O)/C(C#N)=C/c2ccc(-c3ccccc3Cl)o2)c(=O)n(-c2ccccc2)n1C`: under setting [2], the AC50 is 23.1 µM [rising, partial curve, poor fit].

On to `CNS(=O)(=O)c1cccc(C(=O)OCC(=O)c2cc(C)n(-c3ccc4c(c3)OCO4)c2C)c1`, for which the AC50 under setting [1] was 0.82 µM [falling, full curve, poor fit].

On to `COc1cc(OC)cc(-c2sc3ccc(OC)cc3c2C#CCCO)c1`, for which the half-maximal activity concentration (AC50) under setting [1] is 16.4 µM [falling, single point].

Regarding `CCOC(=O)c1sc2nc(C)nc(NCc3cccnc3)c2c1C`, the AC50 under setting [1] is 35.5 µM [falling, single point].

Regarding `COc1ccc(/C=c2\s/c(=C/C(=O)c3ccc(C)cc3)[nH]c2=O)cc1OC`, under setting [1], the AC50 is 20.6 µM [falling, partial curve, poor fit].

On to `N#Cc1ccccc1S(=O)(=O)N1CCN(C(=O)CN2C(=O)NC3(CCCC3)C2=O)CC1`, for which the AC50 under setting [1] was 32.6 µM [falling, partial curve, poor fit].

As to `Cn1c(NCc2c(O)ccc3ccccc23)nc2ccccc21`, the AC50 under setting [1] was 32.6 µM [falling, partial curve, poor fit].

As to `CCCn1c2ccccc2c2cnn(CC(=O)NCCN(CC)CC)c(=O)c21`, under setting [1], the AC50 is 35.5 µM [falling, single point].

On to `COc1cccc(NC(=O)CSc2nc3ccccc3c(=O)n2C)c1`, for which the AC50 under setting [1] is 6.31 µM [falling, partial curve, poor fit].

`CCn1c(SCC(=O)N2CCC(C)CC2)nc2c(c1=O)SC(C)C2` (stereo not drawn): the AC50 under setting [1] is 7.94 µM [falling, partial curve, poor fit].

For `Cc1ccc(Cl)cc1NC(=O)CCn1cccc1`, the AC50 under setting [1] was 31.6 µM [rising, partial curve, poor fit].

Take `COc1cc(-c2noc(C)c2/C=C/c2ccc(N)cc2)cc(OC)c1OC`: the AC50 is, setting by setting: under setting [1], 0.708 µM [rising, full curve, poor fit]; under setting [2], 1 µM [falling, full curve].

For the compound `Cc1nn(CC(=O)NCCCN2CCCC2=O)c(C)c1[N+](=O)[O-]`, the AC50 under setting [1] was 29.1 µM [rising, single point].

As to `c1ccc(-c2noc(-c3ccno3)n2)nc1`, under setting [1], the AC50 is 11.2 µM [rising, single point].

For `NC(=O)C1CCCN(S(=O)(=O)c2ccccc2)C1` (stereo not drawn), the AC50 under setting [1] was 29.1 µM [rising, single point].

For the compound `Cc1ccc(C(=O)N2CCN(c3ccc(NC(=O)COc4ccccc4C)cc3)CC2)cc1`, under setting [1], the AC50 is 25.1 µM [falling, single point].

For `O=C(CC1CCCCC1)NCCCN1CCOCC1`, the AC50 under setting [1] is 3.98 µM [falling, single point].

`O=C(c1ccc(CSc2nc3ccncc3[nH]2)cc1)N1CCN(c2cccc(Cl)c2)CC1`: the AC50 under setting [1] is 18.4 µM [falling, single point].

Consider `CC(C)C(=O)Nc1nc2cc3c(cc2s1)OCCO3`, for which, under setting [1], the AC50 was 15.8 µM [falling, single point].
